Results reported in PMC5814325.
Results are given in words; binding and its absence hold for the method and conditions named. Binding seen in cells or lysates may run through a third protein. For part of these data: A result given as binding can be weak or reduced; the word gives no strength. For part of these data: Where a sequence is shown, tags or fusion partners need not be part of it.

The chains behind the UniProt entries cited, without tags or fusion partners. Where a name states a change or a piece, a line headed by the entry shows the natural chain unless it says otherwise.
UniProt P98172: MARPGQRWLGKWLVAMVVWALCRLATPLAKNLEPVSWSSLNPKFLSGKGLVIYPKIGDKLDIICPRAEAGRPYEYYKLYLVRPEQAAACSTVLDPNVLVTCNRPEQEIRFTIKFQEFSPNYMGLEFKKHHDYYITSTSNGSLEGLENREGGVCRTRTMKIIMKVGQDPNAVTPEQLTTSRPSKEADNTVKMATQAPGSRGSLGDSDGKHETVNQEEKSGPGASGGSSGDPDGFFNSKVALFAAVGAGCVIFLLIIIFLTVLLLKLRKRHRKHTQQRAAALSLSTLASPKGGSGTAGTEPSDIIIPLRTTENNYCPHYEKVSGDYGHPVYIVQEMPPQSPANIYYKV
UniProt P61586: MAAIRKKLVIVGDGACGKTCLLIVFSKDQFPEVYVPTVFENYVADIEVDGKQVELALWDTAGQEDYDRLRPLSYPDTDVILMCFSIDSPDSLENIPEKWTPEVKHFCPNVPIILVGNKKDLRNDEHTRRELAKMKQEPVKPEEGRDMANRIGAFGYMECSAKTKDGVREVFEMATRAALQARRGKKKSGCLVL

T1: Flag-tagged RhoGDI1 G173V (human) (UniProt P52565)
T1 sequence: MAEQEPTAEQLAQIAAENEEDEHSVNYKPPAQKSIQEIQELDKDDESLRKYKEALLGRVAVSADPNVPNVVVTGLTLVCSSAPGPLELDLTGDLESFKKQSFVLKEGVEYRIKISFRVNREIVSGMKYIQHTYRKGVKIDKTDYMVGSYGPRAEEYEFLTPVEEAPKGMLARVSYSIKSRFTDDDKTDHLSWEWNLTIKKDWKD

T2: Flag-tagged RhoGDI1 (wild type) (human) (UniProt P52565)
T2 sequence: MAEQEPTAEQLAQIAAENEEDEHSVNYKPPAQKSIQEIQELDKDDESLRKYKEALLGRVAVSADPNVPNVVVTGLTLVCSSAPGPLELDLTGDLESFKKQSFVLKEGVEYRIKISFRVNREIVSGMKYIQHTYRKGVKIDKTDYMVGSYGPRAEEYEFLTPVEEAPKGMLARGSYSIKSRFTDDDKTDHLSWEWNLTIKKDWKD

B1: endogenous RhoGDI1 (HeLa) (protein, UniProt P52565 1-204)
chain: MAEQEPTAEQLAQIAAENEEDEHSVNYKPPAQKSIQEIQELDKDDESLRKYKEALLGRVAVSADPNVPNVVVTGLTLVCSSAPGPLELDLTGDLESFKKQSFVLKEGVEYRIKISFRVNREIVSGMKYIQHTYRKGVKIDKTDYMVGSYGPRAEEYEFLTPVEEAPKGMLARGSYSIKSRFTDDDKTDHLSWEWNLTIKKDWKD

How the values were obtained:
[1] = biological target: T1, Flag-tagged RhoGDI1 G173V (human); assay: co-IP; HEK293T cells co-transfected; lysis buffer 20 mM Tris-HCl pH 8, 137 mM NaCl, 2 mM EDTA, 1% NP-40; IP with HA or Flag antibodies at 4 °C overnight, protein A/G-agarose; immunoblot
[2] = biological target: T2, Flag-tagged RhoGDI1 (wild type) (human); assay: as above
[3] = biological target: ephrinB1 Y6F mutant (six conserved tyrosines changed to phenylalanine) (UniProt P98172); assay: co-IP; HeLa cells expressing ephrinB1 constructs (with Flag-RhoGDI1 or with endogenous RhoGDI1), serum-starved, treated with 2.5 μg/ml control Fc or EphB2-Fc for 30 min; IP of ephrinB1 (HA antibody) and immunoblot

Molecule	binding [1]	binding [2]	binding [3]
RhoA (endogenous, HEK293T) (from UniProt P61586)	no binding	binds	
B1			binds
